Reference: PubChem BioAssay AID1259297 (Sanger Institute, 2017)

- Test: 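Kinases whose loss kills cells on their own or with targeted drugs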 (primary screen)
- System: human RCM1 colorectal cancer cell line
- Knock-down reagent: siRNA pool against human genes
- Challenge: separate arms: DMSO vehicle, or one anchor drug at a mild dose: BYL719 1 µM, cetuximab 5 µg/ml, trametinib 10 nM
- Measurement: 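Replicate-mean well viability as a share of non-targeting pool control, a robust z-score without drug, and synergy scores for BYL719, cetuximab and trametinib arms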
- Scale: viability z-score, knock-down alone: higher = more viable cells than non-targeting controls; viability, knock-down alone (DMSO): higher = more viable cells
- Call rule: 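Called essential if knock-down without drug gives a viability robust z-score under -3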
- Calls: active = essential when knocked down alone; inactive = no clear loss of viability alone
The whole screen tested 794 reagents; below is a part drawn at random. Of all reagents, 13 (1.6%) got an active call. 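Calls reflect knock-down without drug only; drug synergy is judged separately, with scores above 0.15 counted as synergy.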 Unmarked entries are inactive. No viability above 1 is reported: the scale is capped. Further read-outs or replicates are left out here. The record does not give: the amount of reagent, the time to read-out.

MLKL (mixed lineage kinase domain like pseudokinase) showed viability z-score, knock-down alone -0.291; viability, knock-down alone (DMSO) (fraction of control) = 0.889.
After knock-down of NME5 (NME/NM23 family member 5), the screen gave viability z-score, knock-down alone 0.9; viability, knock-down alone (DMSO) (fraction of control) = 1.
Against GK2 (glycerol kinase 2), the entry reads viability z-score, knock-down alone -0.296; viability, knock-down alone (DMSO) (fraction of control) = 0.889.
Knock-down of TYRO3 (TYRO3 protein tyrosine kinase) gave: viability z-score, knock-down alone 0.483; viability, knock-down alone (DMSO) (fraction of control) = 0.961.
Against PLK4 (polo like kinase 4), the entry reads viability z-score, knock-down alone -1.09; viability, knock-down alone (DMSO) (fraction of control) = 0.815.
Depletion of AK4 (adenylate kinase 4) resulted in: viability z-score, knock-down alone 0.31; viability, knock-down alone (DMSO) (fraction of control) = 0.945.
Knock-down of EPHB6 (EPH receptor B6) resulted in: viability z-score, knock-down alone 0.9; viability, knock-down alone (DMSO) (fraction of control) = 1.
Against MKNK2 (MAPK interacting serine/threonine kinase 2), the values are viability z-score, knock-down alone -0.317; viability, knock-down alone (DMSO) (fraction of control) = 0.887.
MAP3K7 (mitogen-activated protein kinase kinase kinase 7) showed viability z-score, knock-down alone 0.362; viability, knock-down alone (DMSO) (fraction of control) = 0.95.
With knock-down of PNKP (polynucleotide kinase 3'-phosphatase), the record shows viability z-score, knock-down alone -0.325; viability, knock-down alone (DMSO) (fraction of control) = 0.886.
For PRKY (protein kinase Y-linked (pseudogene)) the deposit lists viability z-score, knock-down alone -1.21; viability, knock-down alone (DMSO) (fraction of control) = 0.804.
Against CDK17 (cyclin dependent kinase 17), the values are viability z-score, knock-down alone 0.9; viability, knock-down alone (DMSO) (fraction of control) = 1.
Silencing of HK1 (hexokinase 1) came out at: viability z-score, knock-down alone 0.394; viability, knock-down alone (DMSO) (fraction of control) = 0.953.
MAPK6 (mitogen-activated protein kinase 6) scored viability z-score, knock-down alone -1.02; viability, knock-down alone (DMSO) (fraction of control) = 0.822.
Silencing of PTK6 (protein tyrosine kinase 6) resulted in: viability z-score, knock-down alone 0.533; viability, knock-down alone (DMSO) (fraction of control) = 0.966.
Depletion of PANK1 (pantothenate kinase 1) resulted in: viability z-score, knock-down alone 0.9; viability, knock-down alone (DMSO) (fraction of control) = 1.
With knock-down of PKMYT1 (protein kinase, membrane associated tyrosine/threonine 1), the record shows viability z-score, knock-down alone 0.457; viability, knock-down alone (DMSO) (fraction of control) = 0.959.
Silencing of ASPM (assembly factor for spindle microtubules) came out at: viability z-score, knock-down alone 0.9; viability, knock-down alone (DMSO) (fraction of control) = 1.
For MAP3K11 (mitogen-activated protein kinase kinase kinase 11), the values are viability z-score, knock-down alone 0.9; viability, knock-down alone (DMSO) (fraction of control) = 1.

2 entries from above in another layout.
gene | viability z-score, knock-down alone | viability, knock-down alone (DMSO) (fraction of control)
MLKL (mixed lineage kinase domain like pseudokinase) | -0.291 | 0.889
NME5 (NME/NM23 family member 5) | 0.9 | 1
